# ± gives the standard deviation. Only a part is listed here, and it is no random draw. Many of these values have a large error. Some of the results follow.
# Key:
# [1] = test system: MILI (PIWIL2) piRISC loaded with L1MC piRNA (26 nt); assay: pre-steady-state target cleavage rate (min^-1); higher = faster piRNA-guided slicing of the target; conditions: guide: L1MC piRNA 5'p-UAACUAAAUACUAUGCAAGCUGUAGG; auxiliary factor: none (no GTSF1)
# Summary of the method: (§1)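 Active affinity-purified piRISC (1 nM) loaded with one synthetic guide was mixed with a transcribed, DNA-blocked target RNA library (0.1 nM), with or without 500 nM GTSF1 partner protein, in HEPES–potassium acetate buffer at 33 °C for 0–8 or 0–960 min. Uncleaved targets were sequenced, normalised to depth and to weakly complementary targets, and pooled across three trials, with k3 capped at 0.0001 min^-1. The pre-steady-state cleavage rate was determined with a burst-and-steady-state fit.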
# [2] = test system: MIWI (PIWIL1) piRISC loaded with L1MC piRNA (30 nt); assay: as above; conditions: guide: L1MC piRNA 5'p-UAACUAAAUACUAUGCAAGCUGUAGGUCCU; auxiliary factor: none (no GTSF1)
# Summary of the method: as §1
# [3] = test system: EfPiwi piRISC loaded with L1MC piRNA (26 nt); assay: pre-steady-state target cleavage rate (min^-1); guide: L1MC piRNA 5'p-UAACUAAAUACUAUGCAAGCUGUAGG; MIWI and MILI are mouse PIWI proteins and EfPiwi is from a freshwater sponge; tags in brackets are library labels; higher = faster piRNA-guided slicing of the target
# Summary of the method: as §1
# [4] = auxiliary factor: 500 nM Ephydatia muelleri Gtsf1
# [5] = auxiliary factor: none (no Gtsf1)
Sequence,pre-steady-state target cleavage rate [1],pre-steady-state target cleavage rate [2],"pre-steady-state target cleavage rate [3, 4]","pre-steady-state target cleavage rate [3, 5]"
UCCUGCUACAGCAAGCAUAGUAUUUUCAAA,0.000661 ± 0.012,0.000673 ± 0.014,0.00106 ± 0.0074,0.000291 ± 0.021
UCCUGGUACAGCUUGCAUAGUAAAAACAAA,0.00171 ± 0.0039,0.00131 ± 0.0061,0.000823 ± 0.0048,0.000214 ± 0.039
UCCUGGAUGUCGUUGCAUAGUAUUUUGUUA,0.00287 ± 0.0034,0.00262 ± 0.0027,0.000507 ± 0.01,0.000214 ± 0.043
UCCUGGAUGUCCUACCAUAGUAUUUAGUUA,0.00147 ± 0.004,0.00138 ± 0.0033,0.00203 ± 0.0048,0.000479 ± 0.013
UCCUGGAACAGCUUGCAUAGUAAUUAGAAA,0.00116 ± 0.0052,0.00284 ± 0.003,0.00338 ± 0.0026,0.000109 ± 0.039
UCCUGGAUGAGCUUGCUAUGUAUUUACAAA,0.000411 ± 0.015,0.000238 ± 0.012,0.000461 ± 0.0073,0.000309 ± 0.031
UCCUGGAUGUCCUUGCAAUGUAUUUAGUAA,0.00239 ± 0.0033,0.000948 ± 0.0074,0.00111 ± 0.0067,0.000425 ± 0.016
UCCUGGAUCAGCUUGCAUGUAUUUAGUUA,0.00213 ± 0.0034,0.00263 ± 0.0027,0.0021 ± 0.0044,0.00118 ± 0.0071
UCCUGGAUGAGCUUGCAUAGUUAAUAGAAA,0.000616 ± 0.012,0.00118 ± 0.0078,0.00189 ± 0.0055,0.000748 ± 0.013
UCCUGGAACAGCUUGCAUAGAUAUUUCAAA,0.000637 ± 0.0073,0.000709 ± 0.0086,0.000766 ± 0.0045,0.000278 ± 0.02
UCCUGGAACAGCUUGCAUACAAUUUAGAAA,0.00076 ± 0.0063,0.00087 ± 0.0077,0.00296 ± 0.0045,0.000171 ± 0.041
UCCUGGUACAGCUUGCAUAGUAUAAUGUAA,0.000951 ± 0.0075,0.00241 ± 0.0042,0.00129 ± 0.004,0.000982 ± 0.0094
UCCUGGAUCAGCUUCCAUAGUAUUUAGAAA,0.000556 ± 0.0071,0.000846 ± 0.0062,0.00474 ± 0.0027,0.000296 ± 0.02
UCCUGGUACAGCUUGCAUAGAUUUUAGUAA,0.00348 ± 0.0035,0.00193 ± 0.0033,0.00206 ± 0.0032,0.000675 ± 0.014
UCCUGCUACAGCUUGCAUAGUAUUAUGUAA,0.000725 ± 0.0089,0.00153 ± 0.0052,0.00194 ± 0.0019,0.000172 ± 0.017
UCCUGGUACAGCUACCAUAGUAUUUACAAA,0.000565 ± 0.01,0.000269 ± 0.014,0.000486 ± 0.0098,0.00031 ± 0.023
UCCUGGAUGAGCUUCCAUAGUAUUUAGAUA,0.000323 ± 0.021,0.000719 ± 0.011,0.00223 ± 0.0024,0.000201 ± 0.044
UCCUGGAUGUCCUUGCAUAGUAAAAAGUUA,0.00227 ± 0.0038,0.00105 ± 0.0061,0.00028 ± 0.011,0.000375 ± 0.02
UCCUGCUACAGCUUGCAUAGUAUAAUGAAA,0.00116 ± 0.006,0.00143 ± 0.0053,0.00473 ± 0.0032,0.000462 ± 0.013
UCCUGGAUGUCGUUCCAUAGUAUAUAGUUA,0.000166 ± 0.036,0.000466 ± 0.016,0.000899 ± 0.0069,< 0.0001
UCCUGGAACAGCUUCCAUAGUAUUUACUUA,0.00044 ± 0.012,0.00111 ± 0.0066,0.000807 ± 0.0039,< 0.0001
UCCUGGAACAGCAUGCAUAGUAUUUUCAAA,0.00117 ± 0.0044,0.00132 ± 0.0047,0.00122 ± 0.0024,0.000103 ± 0.036

Sequence,pre-steady-state target cleavage rate [1],pre-steady-state target cleavage rate [2],"pre-steady-state target cleavage rate [3, 4]","pre-steady-state target cleavage rate [3, 5]"
UCCUGGUACAGCUUGCAUAGUAUUUAGCUA,0.00104 ± 0.0094,0.00259 ± 0.0038,0.00142 ± 0.0042,0.000278 ± 0.047
UCCUCCUACAGCUUGGUUAGUAUUUAGAAA,0.00118 ± 0.0043,0.0012 ± 0.0043,0.00231 ± 0.0022,0.000171 ± 0.029
UCCUCCUACAGCUUGCAUAGUAUUAGUUA,0.00294 ± 0.0033,0.00133 ± 0.0043,0.00402 ± 0.0027,0.000678 ± 0.0071
UCCUGGAACAGCUUGGUAAGUAUUUACAAA,0.000833 ± 0.0066,0.00104 ± 0.006,0.00184 ± 0.007,0.000384 ± 0.021
UCCUGGUACAGCUUGCUAAGUAUUUACAAA,0.00089 ± 0.008,0.00139 ± 0.0056,0.000603 ± 0.0079,0.00043 ± 0.016
UCCUCCUACAGCUUGCAUAAGUAUUUAGUUA,0.00139 ± 0.0038,0.000918 ± 0.0073,0.00345 ± 0.0019,0.000383 ± 0.012
UCCUGGAUGAGCUUGGUAAGUAUUUAGAAA,0.000573 ± 0.012,0.000779 ± 0.011,0.000282 ± 0.023,0.000568 ± 0.012
UCCUGCUACAGCUUGCAUAGUUUUAGUUA,0.00124 ± 0.0048,0.000954 ± 0.0065,0.00248 ± 0.0013,0.000244 ± 0.017
UCCUGCUACAGCUAGCAUAGUAUUUAGAAA,0.00129 ± 0.0053,0.00119 ± 0.0053,0.00418 ± 0.0021,0.000198 ± 0.037
UCCUCCUACAGCUUGCAUAGAUUUUACAAA,0.000885 ± 0.0057,0.00063 ± 0.011,0.00268 ± 0.0033,0.000419 ± 0.011
UCCUGGAUGUCGUUGCAUAGUAUAUAGAUA,0.00101 ± 0.0066,0.000592 ± 0.012,0.000376 ± 0.0095,< 0.0001
UCCUGGAUGAGCUUGCAUAGUCAUUUAGUUA,0.00202 ± 0.0045,0.00339 ± 0.0039,0.000454 ± 0.0073,0.000354 ± 0.017
UCCUGGAACAGCUUGCAUAGUUAUUACAAA,0.000687 ± 0.0078,0.0009 ± 0.0053,0.00269 ± 0.0038,0.000137 ± 0.029
UCCUGGAUGUGCUUGCAUUCAUAAAUCAAA [g13:g20:cont:t1A],0.00031 ± 0.014,0.000477 ± 0.0095,< 0.0001,0.000353 ± 0.018
UCCUGGAUGUGCUUGCAUAGUAUAUAGAUA,0.000596 ± 0.01,0.00218 ± 0.0037,0.00119 ± 0.0047,0.000238 ± 0.041
UCCUCCUACAGCUUGCAUACUAUUUUCAAA,0.00113 ± 0.0044,0.00162 ± 0.0037,0.00199 ± 0.0038,0.000335 ± 0.016
UCCUCCUACAGCUUGCAUAGUAAAUAGUAA,0.00134 ± 0.0044,0.00194 ± 0.0042,0.00375 ± 0.0025,0.000353 ± 0.023
UCCUGGAACAGCUUCGAUAGUAUUUUCAAA,0.000398 ± 0.011,0.000697 ± 0.01,0.000623 ± 0.0065,0.00026 ± 0.017
UCCUGGUACAGCUUGGUUAGUAUUUACAAA,0.00152 ± 0.0045,0.00107 ± 0.0063,0.000574 ± 0.0095,0.000741 ± 0.015
UCCUCCUACAGCUUGCAUAGAUAUUAGAAA,0.000177 ± 0.016,0.000318 ± 0.011,0.00201 ± 0.0049,0.000226 ± 0.021
UCCUGGAUCAGCUACCAUAGUAUUUACAAA,< 0.0001,0.000443 ± 0.018,0.00131 ± 0.0072,0.000125 ± 0.056
UCCUGGAUGUCCUUGCAUAGUAUUUUCUUA,0.00172 ± 0.0046,0.00231 ± 0.0049,0.000617 ± 0.01,0.000332 ± 0.019

# Given tab-delimited: entries from further up
Sequence	pre-steady-state target cleavage rate [1]	pre-steady-state target cleavage rate [2]	pre-steady-state target cleavage rate [3, 4]	pre-steady-state target cleavage rate [3, 5]
UCCUGCUACAGCUAGCAUAGUAUUUAGAAA	0.00129 ± 0.0053	0.00119 ± 0.0053	0.00418 ± 0.0021	0.000198 ± 0.037
UCCUGGAUGAGCUUGCAUAGUCAUUUAGUUA	0.00202 ± 0.0045	0.00339 ± 0.0039	0.000454 ± 0.0073	0.000354 ± 0.017
UCCUCCUACAGCUUGCAUACUAUUUUCAAA	0.00113 ± 0.0044	0.00162 ± 0.0037	0.00199 ± 0.0038	0.000335 ± 0.016

# From the supplement of paper PMC10338343
